Results are given in words; binding and its absence hold for the method and conditions named. In cells and extracts the contact can be indirect. Some binding calls cover weakened binding; strength is not graded here. For some assays here: Sequences can lack the tags named with a protein.
Assays:
[1] = target: T1, endogenous BTG3 (human (endogenous in 293T)) (UniProt Q14201); assay: co-IP; endogenous proteins from 293 T lysates, immunoprecipitated with anti-BTG3 or anti-AKT (no. 610860; BD Biosciences) antibody
T1 sequence: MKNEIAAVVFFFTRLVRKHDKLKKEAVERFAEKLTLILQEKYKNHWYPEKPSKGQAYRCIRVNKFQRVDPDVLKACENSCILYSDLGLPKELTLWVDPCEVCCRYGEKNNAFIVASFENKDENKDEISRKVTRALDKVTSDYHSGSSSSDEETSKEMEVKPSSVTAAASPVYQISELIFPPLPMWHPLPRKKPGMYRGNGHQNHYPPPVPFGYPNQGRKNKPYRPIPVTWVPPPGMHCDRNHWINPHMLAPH

Sequences of proteins named here, by UniProt entry; tags and fusion partners are left off.
UniProt P31749: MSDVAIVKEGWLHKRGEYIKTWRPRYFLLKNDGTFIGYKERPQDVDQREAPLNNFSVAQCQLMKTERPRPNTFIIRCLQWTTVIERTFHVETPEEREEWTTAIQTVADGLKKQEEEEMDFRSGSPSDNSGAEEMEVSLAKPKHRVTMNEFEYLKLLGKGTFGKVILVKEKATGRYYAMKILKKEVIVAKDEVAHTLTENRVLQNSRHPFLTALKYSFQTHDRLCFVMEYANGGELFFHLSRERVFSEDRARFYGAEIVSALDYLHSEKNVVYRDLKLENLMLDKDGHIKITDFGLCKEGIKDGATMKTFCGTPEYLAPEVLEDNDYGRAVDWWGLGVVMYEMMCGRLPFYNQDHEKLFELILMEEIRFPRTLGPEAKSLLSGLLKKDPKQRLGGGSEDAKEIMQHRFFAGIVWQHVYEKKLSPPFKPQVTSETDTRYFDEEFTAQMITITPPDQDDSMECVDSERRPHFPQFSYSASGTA

[2] = target: T2, GST-fused N-terminally truncated BTG3, C-terminal domain (amino acids 108-252) (UniProt Q14201); assay: pull-down; recombinant GST or GST-fused BTG3 (full-length, C-terminally or N-terminally truncated) incubated with 293 T lysates expressing HA-tagged AKT; pulled down by GSH beads; western blotting; only the target purified
T2 sequence: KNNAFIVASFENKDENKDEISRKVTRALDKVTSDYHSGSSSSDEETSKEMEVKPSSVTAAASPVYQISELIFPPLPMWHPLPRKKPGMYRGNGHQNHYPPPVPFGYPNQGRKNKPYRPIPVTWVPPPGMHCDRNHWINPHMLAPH

Substance: endogenous AKT (from UniProt P31749 1-480)
- binding [1]: binds

Substance: HA-tagged AKT (from UniProt P31749 1-480)
- binding [2]: binds

Reference: paper PMC4669748
